Assay results as given in article PMC10941658.
These are yes or no findings as the source states them, for the method shown. In cells and extracts the contact can be indirect. Some binding calls cover weakened binding; strength is not graded here. Where a sequence is shown, tags or fusion partners need not be part of it.

Molecular target: T1, C-terminally HA-tagged MEIS2 (MEIS2b isoform) (mouse) (UniProt P97367)
T1 sequence: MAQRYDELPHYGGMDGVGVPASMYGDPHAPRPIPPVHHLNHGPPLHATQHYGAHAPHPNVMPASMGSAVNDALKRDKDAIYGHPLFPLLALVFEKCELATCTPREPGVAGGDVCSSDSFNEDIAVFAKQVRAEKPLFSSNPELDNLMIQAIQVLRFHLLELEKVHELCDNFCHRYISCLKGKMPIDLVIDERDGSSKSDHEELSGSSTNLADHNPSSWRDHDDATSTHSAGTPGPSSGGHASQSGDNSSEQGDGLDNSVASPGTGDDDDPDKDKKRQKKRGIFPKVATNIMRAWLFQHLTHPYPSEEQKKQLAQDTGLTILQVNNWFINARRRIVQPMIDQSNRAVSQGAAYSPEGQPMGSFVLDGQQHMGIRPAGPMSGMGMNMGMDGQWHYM
Experiment: co-IP; HEK 293T cells transfected at once with plasmids for Pbx1 and HA-tagged Meis2b; immunoprecipitation with anti-HA antibodies on Dynabeads in calpain lysis buffer (50 mM Tris-HCl pH 7.5, 100 mM NaCl, 0.5 mM DTT, 250 mM glucose, 5% glycerol, 1% Triton X-100), elution with HA peptide; immunoblot for HA and PBX1

binding: binds
B1: PBX1 (protein, UniProt P41778 1-430)
chain: MDEQPRLMHSHAGVGMAGHPGLSQHLQDGAGGTEGEGGRKQDIGDILQQIMTITDQSLDEAQARKHALNCHRMKPALFNVLCEIKEKTVLSIRGAQEEEPTDPQLMRLDNMLLAEGVAGPEKGGGSAAAAAAAAASGGAGSDNSVEHSDYRAKLSQIRQIYHTELEKYEQACNEFTTHVMNLLREQSRTRPISPKEIERMVSIIHRKFSSIQMQLKQSTCEAVMILRSRFLDARRKRRNFNKQATEILNEYFYSHLSNPYPSEEAKEELAKKCGITVSQVSNWFGNKRIRYKKNIGKFQEEANIYAAKTAVTATNVSAHGSQANSPSTPNSAGSSSSFNMSNSGDLFMSVQSLNGDSYQGAQVGANVQSQVDTLRHVISQTGGYSDGLAASQMYSPQGISANGGWQDATTPSSVTSPTEGPGSVHSDTSN
